Source: patent US20180028516A1, “METHODS AND DEVICES FOR THE TREATMENT OF OCULAR DISEASES IN HUMAN SUBJECTS” (CLEARSIDE BIOMEDICAL, INC., priority 2012, published 2018)
For at least one compound, name, drawing or mass did not settle the structure.

Experiment: Ocular toxicokinetics of TA after suprachoroidal or intravitreal injection (Example 8)
Assay type: in vivo, pigmented rabbits
Details: intravitreal, 2 mg TA
Description: in this study, the total amount of triamcinolone acetonide (TA) delivered into live pigmented rabbit eyes when injected, into the suprachoroidal space using a hollow microneedle or into the vitreous using a standard 30 gauge needle was compared.
On Day 0, pigmented rabbits were injected with either intravitreal or bilateral suprachoroidal injections of 2 mg/100 μl TA Triesence® (TA; Alcon Labs). intravitreal injections were performed using a 30 g needle (Becton-Dickinson) and suprachoroidal injections were performed using a 33 g 750 μm microneedle. The residual amount of TA present in the syringe/needle assembly after injection was determined by RP-HPLC. Clinical observations, slit lamp biomicroscopy with McDonald-Shadduck scoring, intraocular pressure assessment (IOP), electroretinography (ERG), and systemic exposure were assessed up to 120 days post-dose. Animals were sacrificed at 30 minutes, 7 days, 30 days, 60 days, and 120 days for macroscopic observations, ocular toxicokinetics, and ocular histopathology.

Structure (SMILES): CC1(C)O[C@@H]2C[C@H]3[C@@H]4CCC5=CC(=O)C=C[C@]5(C)[C@@]4(F)[C@@H](O)C[C@]3(C)[C@]2(C(=O)CO)O1 [TA, triamcinolone acetonide]
- ratio of TA Lens:Chroroid: approximately 1:1
- ratio of TA Lens:Retina: approximately 1:1
